Results are given in words; binding and its absence hold for the method and conditions named. In cells and extracts the contact can be indirect. Binding can be weak; no strength is given. Tags and fused reporters may be left off the sequences shown.
What was measured:
[1] = molecular target: His-ATG8a (Arabidopsis thaliana); assay: pull-down; purified His-ATG8a on Ni-NTA agarose incubated with N. benthamiana leaf extracts for 2 h at 4 °C; 100 mM Tris-HCl pH 7.5, 150 mM NaCl, 1 mM EDTA, 0.5% Nonidet P-40; beads washed thrice; Western blot with GFP antibody; only the target purified
[2] = molecular target: nYFP-ATG8a (Arabidopsis thaliana); assay: split reporter; split nYFP and cYFP pairs co-expressed with p19 and Mt-rk in 4-5-week-old Nicotiana benthamiana leaves by Agrobacterium infiltration; confocal images 3 days after inoculation

Row | Binder | binding [1] | binding [2]
1 | RGS1^1–283,414–459-GFP (domain or fragment, UniProt Q8H1F2) MASGCALHGGCPSDYVAVAISVICFFVLLSRSVLPCLIHKAPRTNSSSFWIPVIQVISSFNLLFSIMMSVNLLRFRTKHWWRYCYLWAVWIEGPLGFGLLMSCRITQAFQLYFIFVKKRLPPVKSYIFLPLVLLPWIFGAAIIHATKPLNDKCHMGLQWTFPVAGLHALYVLALIAFTRAVRHVEFRFDELRDLWKGILVSATSIVIWVTAFVLNEIHEEISWLQVASRFVLLVTGGILVVVFFSISSNQPLLSQISLKKRQNFEFQRMGQALGIPDSGLLFREEESCHEAMHKEGYSFSSPRLSSVQGSDDPFYQEHMSKSSRCSSPG | binds | –
2 | RGS1^1–250-GFP (domain or fragment, UniProt Q8H1F2 1-250) MASGCALHGGCPSDYVAVAISVICFFVLLSRSVLPCLIHKAPRTNSSSFWIPVIQVISSFNLLFSIMMSVNLLRFRTKHWWRYCYLWAVWIEGPLGFGLLMSCRITQAFQLYFIFVKKRLPPVKSYIFLPLVLLPWIFGAAIIHATKPLNDKCHMGLQWTFPVAGLHALYVLALIAFTRAVRHVEFRFDELRDLWKGILVSATSIVIWVTAFVLNEIHEEISWLQVASRFVLLVTGGILVVVFFSISSNQ | binds | –
3 | AtRGS1-cYFP (protein, UniProt Q8H1F2 1-459) MASGCALHGGCPSDYVAVAISVICFFVLLSRSVLPCLIHKAPRTNSSSFWIPVIQVISSFNLLFSIMMSVNLLRFRTKHWWRYCYLWAVWIEGPLGFGLLMSCRITQAFQLYFIFVKKRLPPVKSYIFLPLVLLPWIFGAAIIHATKPLNDKCHMGLQWTFPVAGLHALYVLALIAFTRAVRHVEFRFDELRDLWKGILVSATSIVIWVTAFVLNEIHEEISWLQVASRFVLLVTGGILVVVFFSISSNQPLLSQISLKKRQNFEFQRMGQALGIPDSGLLFRKEEFRPVDPNEPLDKLLLNKRFRHSFMEFADSCYAGETLHFFEEVYEHGKIPEDDSIRRIYMARHIMEKFIVAGAEMELNLSHKTRQEILTTQDLTHTDLFKNALNEVMQLIKMNLVRDYWSSIYFIKFKEEESCHEAMHKEGYSFSSPRLSSVQGSDDPFYQEHMSKSSRCSSPG | – | binds
4 | RGS1-GFP (protein, UniProt Q8H1F2 1-459) MASGCALHGGCPSDYVAVAISVICFFVLLSRSVLPCLIHKAPRTNSSSFWIPVIQVISSFNLLFSIMMSVNLLRFRTKHWWRYCYLWAVWIEGPLGFGLLMSCRITQAFQLYFIFVKKRLPPVKSYIFLPLVLLPWIFGAAIIHATKPLNDKCHMGLQWTFPVAGLHALYVLALIAFTRAVRHVEFRFDELRDLWKGILVSATSIVIWVTAFVLNEIHEEISWLQVASRFVLLVTGGILVVVFFSISSNQPLLSQISLKKRQNFEFQRMGQALGIPDSGLLFRKEEFRPVDPNEPLDKLLLNKRFRHSFMEFADSCYAGETLHFFEEVYEHGKIPEDDSIRRIYMARHIMEKFIVAGAEMELNLSHKTRQEILTTQDLTHTDLFKNALNEVMQLIKMNLVRDYWSSIYFIKFKEEESCHEAMHKEGYSFSSPRLSSVQGSDDPFYQEHMSKSSRCSSPG | binds | –
5 | RGS1^1–283-GFP (domain or fragment, UniProt Q8H1F2 1-283) MASGCALHGGCPSDYVAVAISVICFFVLLSRSVLPCLIHKAPRTNSSSFWIPVIQVISSFNLLFSIMMSVNLLRFRTKHWWRYCYLWAVWIEGPLGFGLLMSCRITQAFQLYFIFVKKRLPPVKSYIFLPLVLLPWIFGAAIIHATKPLNDKCHMGLQWTFPVAGLHALYVLALIAFTRAVRHVEFRFDELRDLWKGILVSATSIVIWVTAFVLNEIHEEISWLQVASRFVLLVTGGILVVVFFSISSNQPLLSQISLKKRQNFEFQRMGQALGIPDSGLLFR | binds | –

Next, values leading:

Row | binding [1] | binding [2] | Binder
6 | binds | – | RGS1^1–413-GFP (domain or fragment, UniProt Q8H1F2 1-413) MASGCALHGGCPSDYVAVAISVICFFVLLSRSVLPCLIHKAPRTNSSSFWIPVIQVISSFNLLFSIMMSVNLLRFRTKHWWRYCYLWAVWIEGPLGFGLLMSCRITQAFQLYFIFVKKRLPPVKSYIFLPLVLLPWIFGAAIIHATKPLNDKCHMGLQWTFPVAGLHALYVLALIAFTRAVRHVEFRFDELRDLWKGILVSATSIVIWVTAFVLNEIHEEISWLQVASRFVLLVTGGILVVVFFSISSNQPLLSQISLKKRQNFEFQRMGQALGIPDSGLLFRKEEFRPVDPNEPLDKLLLNKRFRHSFMEFADSCYAGETLHFFEEVYEHGKIPEDDSIRRIYMARHIMEKFIVAGAEMELNLSHKTRQEILTTQDLTHTDLFKNALNEVMQLIKMNLVRDYWSSIYFIKFK
7 | binds | – | RGS1^14–250-GFP (domain or fragment, UniProt Q8H1F2 14-250) DYVAVAISVICFFVLLSRSVLPCLIHKAPRTNSSSFWIPVIQVISSFNLLFSIMMSVNLLRFRTKHWWRYCYLWAVWIEGPLGFGLLMSCRITQAFQLYFIFVKKRLPPVKSYIFLPLVLLPWIFGAAIIHATKPLNDKCHMGLQWTFPVAGLHALYVLALIAFTRAVRHVEFRFDELRDLWKGILVSATSIVIWVTAFVLNEIHEEISWLQVASRFVLLVTGGILVVVFFSISSNQ

From publication PMC6747245
